Laboratory results: publication PMC5550850
No constants are given. Whether binding was seen depends on the method and setting. Binding seen in cells or lysates may run through a third protein. Some entries that bind do so weakly or less than the wild type.

Sequences of proteins named here, by UniProt entry; tags and fusion partners are left off.
UniProt P01106: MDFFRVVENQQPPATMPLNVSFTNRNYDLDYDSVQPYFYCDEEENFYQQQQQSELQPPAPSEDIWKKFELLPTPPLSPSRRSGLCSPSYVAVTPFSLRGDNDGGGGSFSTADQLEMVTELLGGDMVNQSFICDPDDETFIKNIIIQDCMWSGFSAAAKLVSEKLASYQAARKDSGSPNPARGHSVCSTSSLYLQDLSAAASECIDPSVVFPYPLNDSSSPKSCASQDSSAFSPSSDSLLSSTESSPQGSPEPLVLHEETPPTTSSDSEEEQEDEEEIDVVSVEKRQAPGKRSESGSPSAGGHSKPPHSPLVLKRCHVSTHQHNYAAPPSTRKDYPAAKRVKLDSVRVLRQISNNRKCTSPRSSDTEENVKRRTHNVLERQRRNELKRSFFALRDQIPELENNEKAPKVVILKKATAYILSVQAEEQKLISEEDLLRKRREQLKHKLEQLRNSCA
UniProt O15379: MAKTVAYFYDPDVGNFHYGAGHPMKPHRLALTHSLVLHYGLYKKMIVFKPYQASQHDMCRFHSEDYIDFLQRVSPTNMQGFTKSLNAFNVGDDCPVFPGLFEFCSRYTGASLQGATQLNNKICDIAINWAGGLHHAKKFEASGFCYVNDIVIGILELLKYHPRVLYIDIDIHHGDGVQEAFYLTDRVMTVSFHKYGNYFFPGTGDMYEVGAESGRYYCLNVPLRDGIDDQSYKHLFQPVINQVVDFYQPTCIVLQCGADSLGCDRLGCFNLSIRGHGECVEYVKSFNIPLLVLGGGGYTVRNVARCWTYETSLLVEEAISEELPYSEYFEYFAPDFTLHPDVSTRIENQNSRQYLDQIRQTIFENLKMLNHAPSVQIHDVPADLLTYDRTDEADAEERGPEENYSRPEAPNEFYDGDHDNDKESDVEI

Target: c-myc (human (endogenous in CRC cell lines)) (UniProt P01106)
Assay: co-IP; co-immunoprecipitation in CRC cells; precipitating antibody, cell line and buffer not told

binding: binds
Substance: HDAC3 (from UniProt O15379 1-428)
